# In PubChem BioAssay AID1671190 (National Center for Advancing Translational Sciences (NCATS), 2021):
# Chains of the proteins cited; added tags and fusions are not shown. Lines headed by an entry give the natural chain unless they say otherwise; changes in a name come on top.
# UniProt P18054: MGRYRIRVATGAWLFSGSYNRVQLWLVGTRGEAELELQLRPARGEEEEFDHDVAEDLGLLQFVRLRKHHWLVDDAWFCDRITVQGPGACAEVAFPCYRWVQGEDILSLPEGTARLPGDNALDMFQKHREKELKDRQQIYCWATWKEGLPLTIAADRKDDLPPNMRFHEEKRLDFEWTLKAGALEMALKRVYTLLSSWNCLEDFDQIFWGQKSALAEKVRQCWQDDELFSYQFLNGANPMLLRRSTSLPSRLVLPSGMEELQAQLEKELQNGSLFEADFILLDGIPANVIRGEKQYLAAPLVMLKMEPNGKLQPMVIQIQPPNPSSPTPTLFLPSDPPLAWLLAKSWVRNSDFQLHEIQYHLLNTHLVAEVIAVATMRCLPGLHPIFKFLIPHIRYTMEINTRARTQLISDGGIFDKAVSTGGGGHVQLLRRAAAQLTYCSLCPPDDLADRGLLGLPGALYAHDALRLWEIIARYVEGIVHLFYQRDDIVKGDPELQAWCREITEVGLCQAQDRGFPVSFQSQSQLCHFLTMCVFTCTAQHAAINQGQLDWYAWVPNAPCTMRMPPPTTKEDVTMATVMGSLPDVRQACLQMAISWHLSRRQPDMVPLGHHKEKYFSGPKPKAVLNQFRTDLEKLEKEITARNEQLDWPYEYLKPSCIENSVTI
# Out of some 580,000 compounds screened, about 6,100 (1.1%) were called active. Inconclusive results, whose numbers are uncertain, are shown with a selection of clear calls. The call rests on the fitted dose curve; in most records, active means well fitted inhibition curve with a large enough effect; inconclusive means small, poorly fitted or top-dose-only effect, or another doubt; inactive means no such curve, though single readings can be large or run the other way. Potencies of inconclusive entries are doubtful fits and often do not repeat.
# Biological target: Polyunsaturated fatty acid lipoxygenase ALOX12 (Homo sapiens) (UniProt P18054)
# Test: Primary qHTS assay for inhibitors of human arachidonate 12S-lipoxygenase (ALOX12): Round 2
# Settings: purified 12hLO, xylenol orange hydroperoxide absorbance; series mostly up to 108 µM
# How it was run: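 Hydroperoxide product was detected by ferrous iron/xylenol orange as the 573 to 405 nm absorbance ratio. Arachidonic acid at 40 uM (final) was turned over for 30 min at room temperature by 150 nM human 12hLO, pH 7.0 Hepes buffer, after 15 min compound preincubation.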
# Potency means the concentration at half of the fitted maximal effect.
row,SMILES,Potency
1,CCC(COC(=O)Nc1ccccc1)NC(=O)OC(C)C (configuration not stated),"inconclusive: 35.5 µM [inhibitor, partial curve, poor fit]"
2,CC(=O)Nc1ccc(CN2C[C@H](O)C[C@H]2c2nc(-c3ccc(OC(F)(F)F)cc3)no2)cc1,inactive
3,Cc1ccc(CSc2nc3c(c(=O)[nH]c(=O)n3C)n2C(C)C)cc1,"inconclusive: 50.1 µM [inhibitor, partial curve, poor fit]"
4,O=C(Nc1ccccc1)C1CCOC1=O (configuration not stated),"inconclusive: 112 µM [inhibitor, single point]"
5,COC(=O)c1ccn(Cc2ccc(Cl)c(Cl)c2)n1,inactive
6,Cn1c(=O)[nH]c(=O)c2c1nc(SCCO)n2Cc1ccccc1Cl,"inconclusive: 44.7 µM [inhibitor, partial curve, poor fit]"
7,O=C(Nc1ccc(-c2csc(Nc3cccc(C(F)(F)F)c3)n2)cc1)c1cccc(C(F)(F)F)c1,"inconclusive: 100 µM [inhibitor, single point]"
8,Cc1noc(C)c1NC(=O)N(C)C[C@@H]1Oc2ccc(NC(=O)CCC(F)(F)F)cc2CC(=O)N([C@@H](C)CO)C[C@@H]1C,inactive
9,COc1ccc(C(=O)CC(=O)C(=O)Nc2ccc(Cl)cc2)cc1,inactive
10,COc1cc(C(O)P(=O)(OCC(C)C)c2ccc(N(C)C)cc2)cc(OC)c1OC (configuration not stated),"inconclusive: 112 µM [inhibitor, partial curve, poor fit]"
11,Clc1ccc2c(N/N=C/c3cccs3)ccnc2c1,"inconclusive: 79.4 µM [inhibitor, partial curve, poor fit]"
12,COc1ccc(-c2nc3scc(CCNS(=O)(=O)c4c(C)cc(C)cc4C)n3n2)cc1OC,"inconclusive: 1.12 µM [inhibitor, full curve, poor fit]"
13,O=C(c1ccc(O)cc1)c1ccc(F)cc1,inactive
14,C/C=C/c1cnc2c(c1)C(=O)N([C@@H](C)CO)C[C@H](C)[C@@H](CN(C)S(=O)(=O)c1ccc(C)cc1)O2,"inconclusive: 35.5 µM [inhibitor, partial curve, poor fit]"
15,CNc1nc(-c2ccoc2)nc2ccccc12,active: 35.5 µM
16,CCCN(CC(=O)Nc1ccccc1OC)C(=O)c1cc(-c2cccs2)nn1-c1ccccc1,"inconclusive: 50.1 µM [inhibitor, partial curve, poor fit]"
17,CCCc1cc(=O)[nH]c(Nc2ccccc2O)n1,inactive
18,O=C(NCCn1cc(SCc2ccccc2)c2ccccc21)c1cccs1,"inconclusive: 14.1 µM [inhibitor, partial curve, poor fit]"
19,NS(=O)(=O)c1ccc(CCNCc2cc(Br)ccc2OCc2ccccc2)cc1,"inconclusive: 89.1 µM [inhibitor, partial curve, poor fit]"
20,O=S(=O)(NCc1ccccc1)N1CCCC1c1nc(-c2ccncc2)no1 (configuration not stated),inactive
21,C[C@@H]1CN([C@H](C)CO)C(=O)CCCn2cc(nn2)CO[C@H]1CN(C)C(=O)Nc1ccc2c(c1)OCCO2,"inconclusive: 35.5 µM [inhibitor, single point]"
22,COc1ccc(C(=O)N/C(=C\c2ccc(-c3cccc([N+](=O)[O-])c3)o2)C(=O)NCCCN2CCOCC2)cc1,"inconclusive: 112 µM [inhibitor, single point]"
23,CC(C)(C)C1CCc2c(sc(NC(=O)c3ccccc3F)c2C(=O)NCc2ccco2)C1 (configuration not stated),"inconclusive: 112 µM [inhibitor, partial curve, poor fit]"

row,SMILES,Potency
1,O=CNc1ccc2c3c(cccc13)-c1ccccc1-2,inactive
2,O=C(Nc1ccc2oc(-c3ccncc3)nc2c1)c1ccc(Cl)cc1Cl,inactive
3,COc1ccc2c(C)c(CCC(=O)N3CCN(Cc4ccccc4)CC3)c(=O)oc2c1,inactive
4,Cc1nc(-c2cccnc2)sc1CCNS(=O)(=O)c1ccc(Cl)s1,"inconclusive: 50.1 µM [inhibitor, partial curve, poor fit]"
5,CN(CC(=O)NC1(C#N)CCCCC1)c1cccc(C#N)c1,inactive
6,NCC1CCN(Cc2ccccc2)C1 (configuration not stated),"inconclusive: 0.0794 µM [inhibitor, full curve, poor fit]"
7,COc1cc(C(=O)O[C@H]2C/C(C)=C/CC/C(C)=C/[C@@H](O)C2C(C)C)ccc1O (some centres not stated),"inconclusive: 56.2 µM [inhibitor, partial curve, poor fit]"
8,O=C(NC1CCCCCC1)c1ccc2c(Cl)c3c(nc2c1)CCCC3,inactive
9,CC(=O)Nc1ccc(NC(=O)c2nccnc2C(=O)O)cn1,"inconclusive: 4.47 µM [inhibitor, full curve, poor fit]"
10,COC(=O)CNC(=O)N1CC[C@H]2C(=O)NCCCCCCN(Cc3ccncc3)[C@@H]2C1,inactive
11,Nc1ccccc1Sc1ccc(C(F)(F)F)cc1[N+](=O)[O-],"inconclusive: 79.4 µM [inhibitor, partial curve, poor fit]"
12,Cc1occc(=O)c1OCc1noc(C(=O)NCc2cccnc2)n1,inactive
13,O=C(Nc1ccccc1F)C(=Cc1sc(N2CCOCC2)nc1-c1ccccc1)C(=O)Nc1ccccc1F,inactive
14,Cc1ccc(SCC(=O)OCC(=O)NCc2cccs2)cc1,"inconclusive: 63.1 µM [inhibitor, partial curve, poor fit]"
15,CC(OC(=O)CNC(=O)c1cccc(F)c1)C(=O)NC1CCCCC1C (configuration not stated),"inconclusive: 112 µM [inhibitor, single point]"
16,Cc1ccc(/C=C/C(=O)c2c(C)cc(C)[nH]c2=O)cc1,inactive
17,O=C(COc1ncnc2ccc(Br)cc12)Nc1cccc(F)c1,inactive
18,Cc1ccc(C(NC(=O)CSc2nnnn2C)c2cccs2)cc1 (configuration not stated),"inconclusive: 50.1 µM [inhibitor, partial curve, poor fit]"
19,CCCOC(=O)c1ccc(Oc2c(-c3ccc(OCC)cc3O)n[nH]c2C)cc1,"inconclusive: 12.6 µM [inhibitor, partial curve, poor fit]"
20,COc1ccc(OCC2CN(Cc3ccccc3)S(=O)(=O)CCO2)cc1 (configuration not stated),"inconclusive: 100 µM [inhibitor, single point]"
21,CSc1ccc(/C=N/N2CCN(Cc3ccc(C)cc3C)CC2)cc1,inactive
22,O=C(Nc1ccc(Cl)cc1C(=O)O)c1ccc2c(c1)C(=O)N(Cc1ccco1)C2=O,"inconclusive: 50.1 µM [inhibitor, partial curve, poor fit]"
23,Cc1nn(-c2ccc(N3CCCC3)nn2)c(C)c1CCC(=O)NCc1ccccc1,inactive

row,SMILES,Potency
1,Cc1ccc(-n2nnnc2SCC(=O)Nc2cccc(NC(=O)c3ccco3)c2)cc1C,inactive
2,O=C(NCc1ccc(Cl)cc1)N1CCN(Cc2ccccc2)CC1,"inconclusive: 44.7 µM [inhibitor, partial curve, poor fit]"
3,Cc1ccc2c(c1)C1CN(C)CCC1N2C(=O)c1ccccc1NS(=O)(=O)c1cccc(C(F)(F)F)c1 (configuration not stated),"inconclusive: 39.8 µM [inhibitor, partial curve, poor fit]"
4,O=C(c1ccccc1Cl)N1CCC(N(Cc2ccccc2)C2CCOCC2)CC1,"inconclusive: 28.2 µM [inhibitor, partial curve, poor fit]"
5,CCCCC(=O)NC1(C(F)(F)F)C(=O)N(Cc2ccccc2)C(C)=C1C(=O)OC (configuration not stated),inactive
6,CN1CCN(C(=O)c2ccc(Cc3cn(C)c4ccccc34)nc2)CC1,"inconclusive: 70.8 µM [inhibitor, single point]"
7,COc1ccc(NC(=O)Nc2ccc3c(c2)C(=O)N([C@H](C)CO)C[C@H](C)[C@H](CN(C)Cc2ccc(C(=O)O)cc2)OCCCC[C@@H](C)O3)cc1,"inconclusive: 89.1 µM [inhibitor, single point]"
8,FC(F)(F)c1cc(Cl)c2nc(-c3ccc(Cl)cc3)c(Cc3ccccc3)n2c1,"inconclusive: 25.1 µM [inhibitor, partial curve, poor fit]"
9,CN(C(=O)C=Cc1ccco1)c1ccccc1,inactive
10,Cc1ccccc1NC(CNS(=O)(=O)c1ccccc1)c1ccccc1 (configuration not stated),"inconclusive: 100 µM [inhibitor, single point]"
11,CC(C)C(NC(=O)c1ccco1)C(=O)OCC(=O)N1CC(=O)Nc2ccccc21 (configuration not stated),"inconclusive: 89.1 µM [inhibitor, partial curve, poor fit]"
12,O=C(c1cccc(Cl)c1)N1CCN(C(=O)c2nnn3c2COC(c2ccc(Cl)cc2)C3)CC1 (configuration not stated),inactive
13,COc1ccccc1N1CCN(C(=O)CN2C(=O)C3CCCCC3C2=O)CC1 (configuration not stated),inactive
14,Cc1cc(I)ccc1NC(=S)NCCc1ccccc1,"inconclusive: 50.1 µM [inhibitor, partial curve, poor fit]"
15,CCCCC(c1nc2ccccc2[nH]1)n1c(-c2ccccc2)nc2cc(C)c(C)cc21 (configuration not stated),inactive
16,Nc1cc(-c2ccc(OC(F)(F)F)cc2)nn1-c1ccc(Cl)c(Cl)c1,"inconclusive: 112 µM [inhibitor, single point]"
17,c1ccc2cc(-c3cc4ccccn4c3)ccc2c1,"inconclusive: 7.94 µM [inhibitor, full curve, poor fit]"
18,O=[N+]([O-])c1cc(S(=O)(=O)Nc2ccc(Cl)cc2)ccc1N/N=C/c1ccccc1Cl,"inconclusive: 50.1 µM [inhibitor, partial curve, poor fit]"
19,COc1c(F)c(F)c(C(=O)Nc2ccccc2N2CCN(C(=O)C(C)C)CC2)c(F)c1F,"inconclusive: 100 µM [inhibitor, single point]"
20,COc1ccc(C2CC(=O)C=C3c4ccc(OC)cc4CCC32)cc1 (configuration not stated),inactive
21,CCc1nc2nc(-c3cccc(OC)c3)cc(=O)n2[nH]1,"inconclusive: 56.2 µM [inhibitor, partial curve, poor fit]"

# Quoted from the listing, four compounds:
row,SMILES,Potency
4,O=C(c1ccccc1Cl)N1CCC(N(Cc2ccccc2)C2CCOCC2)CC1,"inconclusive: 28.2 µM [inhibitor, partial curve, poor fit]"
5,CCCCC(=O)NC1(C(F)(F)F)C(=O)N(Cc2ccccc2)C(C)=C1C(=O)OC (configuration not stated),inactive
6,CN1CCN(C(=O)c2ccc(Cc3cn(C)c4ccccc34)nc2)CC1,"inconclusive: 70.8 µM [inhibitor, single point]"
7,COc1ccc(NC(=O)Nc2ccc3c(c2)C(=O)N([C@H](C)CO)C[C@H](C)[C@H](CN(C)Cc2ccc(C(=O)O)cc2)OCCCC[C@@H](C)O3)cc1,"inconclusive: 89.1 µM [inhibitor, single point]"
